# Results of single-concentration screens

Sequences of proteins named here, by UniProt entry; tags and fusion partners are left off. Residues count along the entry.
UniProt P9WFT3, whole entry: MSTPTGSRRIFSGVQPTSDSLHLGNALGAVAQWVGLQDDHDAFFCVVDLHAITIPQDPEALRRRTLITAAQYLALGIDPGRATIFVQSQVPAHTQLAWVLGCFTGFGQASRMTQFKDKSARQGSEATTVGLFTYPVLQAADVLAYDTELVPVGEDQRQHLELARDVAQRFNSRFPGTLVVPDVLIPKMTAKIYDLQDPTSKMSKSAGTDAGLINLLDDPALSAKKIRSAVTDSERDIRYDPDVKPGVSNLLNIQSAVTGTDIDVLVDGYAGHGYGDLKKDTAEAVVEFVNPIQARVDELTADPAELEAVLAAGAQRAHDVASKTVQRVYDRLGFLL
UniProt I6X8D2, whole entry: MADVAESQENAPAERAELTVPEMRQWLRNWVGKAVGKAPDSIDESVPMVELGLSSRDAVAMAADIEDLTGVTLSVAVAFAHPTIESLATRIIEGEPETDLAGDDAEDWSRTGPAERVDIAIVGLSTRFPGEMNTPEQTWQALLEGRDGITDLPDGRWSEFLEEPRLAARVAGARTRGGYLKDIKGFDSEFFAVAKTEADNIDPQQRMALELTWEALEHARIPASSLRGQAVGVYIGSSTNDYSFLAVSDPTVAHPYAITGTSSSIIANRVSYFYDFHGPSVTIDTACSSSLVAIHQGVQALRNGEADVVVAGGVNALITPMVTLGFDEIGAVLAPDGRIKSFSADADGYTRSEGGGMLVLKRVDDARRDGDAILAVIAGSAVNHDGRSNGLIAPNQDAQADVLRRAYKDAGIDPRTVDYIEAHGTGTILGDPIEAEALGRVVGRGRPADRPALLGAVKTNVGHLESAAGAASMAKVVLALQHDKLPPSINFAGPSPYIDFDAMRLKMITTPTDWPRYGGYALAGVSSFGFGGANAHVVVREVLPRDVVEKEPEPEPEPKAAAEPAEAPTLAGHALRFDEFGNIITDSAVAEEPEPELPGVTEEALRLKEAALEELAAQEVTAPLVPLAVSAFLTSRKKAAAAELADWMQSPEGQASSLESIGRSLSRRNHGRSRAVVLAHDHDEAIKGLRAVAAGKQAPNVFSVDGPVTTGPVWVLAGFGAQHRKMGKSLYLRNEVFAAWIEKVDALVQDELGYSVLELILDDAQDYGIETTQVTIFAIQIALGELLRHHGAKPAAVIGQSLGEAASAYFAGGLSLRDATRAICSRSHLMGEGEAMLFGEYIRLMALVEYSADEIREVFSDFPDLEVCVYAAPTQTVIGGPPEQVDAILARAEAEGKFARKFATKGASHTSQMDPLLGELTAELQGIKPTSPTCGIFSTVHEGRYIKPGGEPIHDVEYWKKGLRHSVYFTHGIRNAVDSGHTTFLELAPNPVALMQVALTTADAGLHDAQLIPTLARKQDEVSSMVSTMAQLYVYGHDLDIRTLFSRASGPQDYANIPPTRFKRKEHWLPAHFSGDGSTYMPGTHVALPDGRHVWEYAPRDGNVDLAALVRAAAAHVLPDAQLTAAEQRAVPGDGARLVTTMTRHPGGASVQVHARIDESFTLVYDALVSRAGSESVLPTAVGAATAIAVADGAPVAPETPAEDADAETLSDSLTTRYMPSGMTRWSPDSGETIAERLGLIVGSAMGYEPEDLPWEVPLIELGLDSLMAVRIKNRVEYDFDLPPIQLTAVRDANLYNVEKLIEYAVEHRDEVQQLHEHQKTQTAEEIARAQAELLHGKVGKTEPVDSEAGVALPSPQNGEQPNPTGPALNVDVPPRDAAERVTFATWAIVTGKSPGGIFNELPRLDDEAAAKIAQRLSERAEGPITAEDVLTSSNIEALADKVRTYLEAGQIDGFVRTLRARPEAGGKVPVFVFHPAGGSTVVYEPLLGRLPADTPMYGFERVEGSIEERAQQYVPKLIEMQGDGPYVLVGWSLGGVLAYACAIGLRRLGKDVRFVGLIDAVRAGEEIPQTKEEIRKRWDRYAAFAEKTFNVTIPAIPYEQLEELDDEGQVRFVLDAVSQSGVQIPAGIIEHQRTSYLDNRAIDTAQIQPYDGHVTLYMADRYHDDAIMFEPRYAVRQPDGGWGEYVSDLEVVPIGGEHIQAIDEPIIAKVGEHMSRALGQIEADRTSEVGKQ
UniProt A4I591, 1-473: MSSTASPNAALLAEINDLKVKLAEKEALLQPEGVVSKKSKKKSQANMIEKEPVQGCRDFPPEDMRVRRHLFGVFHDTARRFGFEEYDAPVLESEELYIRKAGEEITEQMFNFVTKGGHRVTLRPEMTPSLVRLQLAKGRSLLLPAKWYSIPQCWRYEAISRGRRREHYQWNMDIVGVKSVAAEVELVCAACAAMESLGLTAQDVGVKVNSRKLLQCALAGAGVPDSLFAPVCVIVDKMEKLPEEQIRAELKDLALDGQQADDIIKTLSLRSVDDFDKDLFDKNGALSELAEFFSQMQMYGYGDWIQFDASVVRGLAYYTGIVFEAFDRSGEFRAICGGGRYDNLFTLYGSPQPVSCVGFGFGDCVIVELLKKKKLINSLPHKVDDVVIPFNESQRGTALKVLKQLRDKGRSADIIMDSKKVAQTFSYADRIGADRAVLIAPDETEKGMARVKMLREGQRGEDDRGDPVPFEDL
UniProt Q4DA54, 1-478: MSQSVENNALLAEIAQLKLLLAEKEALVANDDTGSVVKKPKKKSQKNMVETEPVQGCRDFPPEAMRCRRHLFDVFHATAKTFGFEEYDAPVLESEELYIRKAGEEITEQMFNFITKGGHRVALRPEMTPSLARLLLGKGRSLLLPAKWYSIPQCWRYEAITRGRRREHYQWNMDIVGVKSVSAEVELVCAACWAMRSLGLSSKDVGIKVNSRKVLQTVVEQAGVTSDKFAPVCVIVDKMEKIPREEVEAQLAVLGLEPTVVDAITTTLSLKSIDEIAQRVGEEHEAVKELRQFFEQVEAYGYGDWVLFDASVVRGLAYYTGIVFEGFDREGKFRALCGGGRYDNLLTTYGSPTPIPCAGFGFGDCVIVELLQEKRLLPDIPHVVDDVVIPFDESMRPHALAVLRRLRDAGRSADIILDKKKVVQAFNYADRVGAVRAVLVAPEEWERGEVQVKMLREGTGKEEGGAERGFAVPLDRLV

Measurements from “University of Dundee, Small-Polar-MMV Screening Library” (2021), ChEMBL document CHEMBL3988442.

Values are the deposited “Percent Effect”, in %.
The record does not define 0% and 100%; most values in the screen are far below 50% and negative numbers occur (in some assays of this library far below -100).
This is an unselected part of the compounds tested.
A dash means the value is not listed here; it may have been measured.

MtTrpRS: 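Enzyme assay of tryptophanyl-tRNA synthetase; the read-out is not stated. Target: Tryptophan-tRNA ligase, Mycobacterium tuberculosis (UniProt P9WFT3). Tested at 10 µM. Direction is not recorded; retested compounds ran higher, which suggests that high means inhibition. Of about 65,000 compounds tested this way, about 64 (0.098%) reached 50% or more in at least one test.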
Pks13 thioesterase: 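Polyketide synthase Pks13, Mycobacterium tuberculosis (UniProt I6X8D2). Enzyme assay of the thioesterase domain of polyketide synthase 13; the read-out is not stated. Concentration: 30 µM. Higher reads as stronger inhibition (inferred from which compounds were picked for retests). About 67,000 compounds were tested under these conditions; 0.46% (about 300) showed 50% or more at least once.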
LiHisRS: 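Histidine-tRNA ligase, Leishmania infantum (UniProt A4I591). Enzyme assay of histidyl-tRNA synthetase; the read-out is not stated. Concentration: 30 µM. Direction is inferred from retests: higher values go with stronger inhibition. The assay is labelled LdHisRS but filed under L. infantum. Of about 69,000 compounds tested this way, about 410 (0.6%) reached 50% or more in at least one test.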
TcHisRS: 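Enzyme assay of histidyl-tRNA synthetase; the read-out is not stated. Target: Histidine-tRNA ligase, Trypanosoma cruzi CL Brener (UniProt Q4DA54). Tested at 30 µM. Direction is inferred from retests: higher values go with stronger inhibition. Of about 69,000 compounds tested this way, about 31 (0.045%) reached 50% or more in at least one test.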

| # | Compound | MtTrpRS | Pks13 thioesterase | LiHisRS | TcHisRS |
|---|---|---|---|---|---|
| 1 | `CCOCC(=O)N1CCC2(CC1)CC(c1ccccc1)CO2` (centres unmarked) | - | -5.011 | 13.86 | 7.538 |
| 2 | `CS(=O)(=O)NCc1ccc(C(=O)NCc2ccc3c(c2)CCC3)o1` | -2.341 | 0.2412 | 5.479 | 7.937 |
| 3 | `O=S(=O)(NCCc1c[nH]c2ccc(F)cc12)C1CCOCC1` | -4.964 | -9.513 | 3.509 | 4.202 |
| 4 | `O=C(O)[C@@H]1CCN(C(=O)Cc2ccccn2)[C@@H]1c1ccc(F)cc1` | -5.91 | -7.726 | 11.27 | 9.231 |
| 5 | `COCCC(=O)N1CCCC1c1nc(O)cc(-c2ccccn2)n1` (centres unmarked) | - | -16.93 | 8.247 | -1.111 |
| 6 | `Cc1ccc(C2COCCN2C(=O)c2ccc(C#N)cc2)o1` (centres unmarked) | 0.6517 | -10.61 | 8.036 | 13.33 |
| 7 | `O=C(NCc1nnc2n1CCCCC2)N1CCC2(CCCCC2)C1` | 2.514 | -22.46 | 10.26 | 2.809 |
| 8 | `CS(=O)(=O)NC[C@]12COC[C@H]1CN(C(=O)C1CCCCC1)C2` | -0.7846 | -34.59 | -25.56 | -27.07 |
| 9 | `CCN(C)C[C@@H]1CN(S(=O)(=O)c2cccc(Cl)c2)C[C@@H]1CO` | -1.326 | -24.23 | 12 | -6.358 |
| 10 | `O=C(C1CCC1)N1CCC2(COCc3cnc(-c4cccnc4)nc32)C1` (centres unmarked) | -1.526 | -24.4 | 23.29 | 3.96 |
| 11 | `CCC1C=CCN1C(=O)c1cc(COc2ccccc2OC)[nH]n1` (centres unmarked) | -2.349 | -24.61 | 12.59 | 10.45 |
| 12 | `COC(=O)NCCCC(=O)NC1(c2cccc(Cl)c2)CC1` | -3.396 | 16.87 | 5 | 0 |
| 13 | `CC(=O)N1CCc2[nH]cnc2C12CCN(CC1CCOC1)CC2` (centres unmarked) | -0.7435 | -16.12 | 21.92 | 9.189 |
| 14 | `Cc1cc(C(=O)N2CCCC(c3noc(C)n3)C2)[nH]n1` (centres unmarked) | 1.023 | -23.53 | 3.371 | -1.504 |
| 15 | `Cc1ccc(F)c(OC2(C(=O)O)CCN(C(=O)c3ccncc3)CC2)c1` | -2.559 | 1.189 | 1.613 | 2.041 |

The last 2 entries again:

Result for Cc1cc(C(=O)N2CCCC(c3noc(C)n3)C2)[nH]n1 (centres unmarked) was MtTrpRS: 1.023%; Pks13 thioesterase: -23.53%; LiHisRS: 3.371%; TcHisRS: -1.504%.
Result for Cc1ccc(F)c(OC2(C(=O)O)CCN(C(=O)c3ccncc3)CC2)c1 was MtTrpRS: -2.559%; Pks13 thioesterase: 1.189%; LiHisRS: 1.613%; TcHisRS: 2.041%.